Reference: patent US20080241258A1, “TREATMENT OF DISEASES WITH NANOPARTICLES HAVING A SIZE-DEPENDENT CYTOTOXICITY” (priority 2007, published 2008)
“Also recorded” adds a separate entry of the source.

Tested on: HeLa cells
Test: Annexin V/propidium iodide double staining and flow cytometry (live, apoptotic, necrotic cells)
Format: cell-based
Settings: HeLa log phase, 6, 12, 18 and 24 hours; staurosporine 2 μM, Au1.2TPPMS 140 μM, Au1.4TPPMS 110 μM

## CN[C@@H]1C[C@H]2O[C@@](C)([C@@H]1OC)n1c3ccccc3c3c4c(c5c6ccccc6n2c5c31)C(=O)NC4 [staurosporine]
  kind of cell death (apoptosis versus necrosis): predominantly apoptosis; also recorded: mostly apopotosis
